Data as given in PubChem BioAssay AID1259254 (NCATS, 2017)
The whole screen tested about 59,000 reagents; below is a part drawn at random. About 1,550 of them (2.6%) were called active. 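G2 share is only a proxy for re-replication; each gene was hit by three separate siRNAs, and active genes were retested.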 The numbers tell different reagents against one gene apart. Further read-outs or replicates are left out here. The record does not give: the amount of reagent.

Purpose: 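Gene knock-downs that lead to re-replication, shown by excess G2 DNA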 (primary screen)
System: human HCT116 colorectal cancer cells
Reagent: single siRNA against human genes
Duration: 3 days
Measurement: 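Nuclei stained with Hoechst and imaged; cell-cycle phase assigned by DNA content; G2 share scaled per plate, non-targeting siRNA 0%, GMNN siRNA 100%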
Reading the numbers: G2 robust z-score: higher = more G2 cells, more excess DNA replication
Rule for the call: 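An siRNA counts as active if its G2 robust z-score lies at least 5 MADs above the screen median; here such calls match roughly 38% of GMNN control or more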

{"target": "RFESD", "siRNA no.": 1, "G2 robust z-score": 0.947, "call": "inactive"}
{"target": "RFESD", "siRNA no.": 2, "G2 robust z-score": -0.492, "call": "inactive"}
{"target": "RFESD", "siRNA no.": 3, "G2 robust z-score": 1.51, "call": "inactive"}
{"target": "LRCH3", "siRNA no.": 1, "G2 robust z-score": 1.21, "call": "inactive"}
{"target": "LRCH3", "siRNA no.": 2, "G2 robust z-score": -0.0906, "call": "inactive"}
{"target": "LRCH3", "siRNA no.": 3, "G2 robust z-score": 0.914, "call": "inactive"}
{"target": "AGO1", "siRNA no.": 1, "G2 robust z-score": -0.456, "call": "inactive"}
{"target": "AGO1", "siRNA no.": 2, "G2 robust z-score": 0.0569, "call": "inactive"}
{"target": "AGO1", "siRNA no.": 3, "G2 robust z-score": 7.52, "call": "active"}
{"target": "CCN2", "siRNA no.": 1, "G2 robust z-score": 0.0242, "call": "inactive"}
{"target": "CCN2", "siRNA no.": 2, "G2 robust z-score": 0.663, "call": "inactive"}
{"target": "CCN2", "siRNA no.": 3, "G2 robust z-score": 0.0116, "call": "inactive"}
{"target": "SPEF2", "siRNA no.": 1, "G2 robust z-score": -0.826, "call": "inactive"}
{"target": "SPEF2", "siRNA no.": 2, "G2 robust z-score": -0.0934, "call": "inactive"}
{"target": "SPEF2", "siRNA no.": 3, "G2 robust z-score": -0.391, "call": "inactive"}

2 neighbouring entries already listed, for reference:
{"target": "CCN2", "siRNA no.": 3, "G2 robust z-score": 0.0116, "call": "inactive"}
{"target": "SPEF2", "siRNA no.": 1, "G2 robust z-score": -0.826, "call": "inactive"}

More records:
{"target": "TLR5", "siRNA no.": 1, "G2 robust z-score": 1.12, "call": "inactive"}
{"target": "TLR5", "siRNA no.": 2, "G2 robust z-score": -0.711, "call": "inactive"}
{"target": "TLR5", "siRNA no.": 3, "G2 robust z-score": -0.708, "call": "inactive"}
{"target": "NOL9", "siRNA no.": 1, "G2 robust z-score": 1.15, "call": "inactive"}
{"target": "NOL9", "siRNA no.": 2, "G2 robust z-score": -0.322, "call": "inactive"}
{"target": "NOL9", "siRNA no.": 3, "G2 robust z-score": -0.965, "call": "inactive"}
{"target": "ITPKC", "siRNA no.": 1, "G2 robust z-score": -1.14, "call": "inactive"}
{"target": "ITPKC", "siRNA no.": 2, "G2 robust z-score": -1.23, "call": "inactive"}
{"target": "ITPKC", "siRNA no.": 3, "G2 robust z-score": -0.461, "call": "inactive"}
{"target": "CCR7", "siRNA no.": 1, "G2 robust z-score": 1.19, "call": "inactive"}
{"target": "CCR7", "siRNA no.": 2, "G2 robust z-score": 0.303, "call": "inactive"}
{"target": "CCR7", "siRNA no.": 3, "G2 robust z-score": -0.179, "call": "inactive"}
{"target": "ZSCAN5DP", "siRNA no.": 1, "G2 robust z-score": -0.746, "call": "inactive"}
{"target": "ZSCAN5DP", "siRNA no.": 2, "G2 robust z-score": -0.103, "call": "inactive"}
{"target": "ZSCAN5DP", "siRNA no.": 3, "G2 robust z-score": 2.08, "call": "inactive"}
